The list shows a part of the results.

Protein sequences, listed by entry. Tags and fused reporters are not part of them. Lines headed by an entry give the natural chain unless they say otherwise; changes in a name come on top.
UniProt P50148, whole entry, looked up: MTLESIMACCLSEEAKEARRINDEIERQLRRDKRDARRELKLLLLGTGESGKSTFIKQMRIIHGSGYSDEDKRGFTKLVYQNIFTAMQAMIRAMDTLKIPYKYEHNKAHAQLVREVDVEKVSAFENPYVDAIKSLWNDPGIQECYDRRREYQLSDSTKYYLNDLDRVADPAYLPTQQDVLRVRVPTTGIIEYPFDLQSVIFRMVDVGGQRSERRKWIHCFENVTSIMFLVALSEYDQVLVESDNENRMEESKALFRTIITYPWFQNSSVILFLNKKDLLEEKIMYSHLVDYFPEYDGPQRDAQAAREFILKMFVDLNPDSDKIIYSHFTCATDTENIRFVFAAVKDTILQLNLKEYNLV
UniProt O14908: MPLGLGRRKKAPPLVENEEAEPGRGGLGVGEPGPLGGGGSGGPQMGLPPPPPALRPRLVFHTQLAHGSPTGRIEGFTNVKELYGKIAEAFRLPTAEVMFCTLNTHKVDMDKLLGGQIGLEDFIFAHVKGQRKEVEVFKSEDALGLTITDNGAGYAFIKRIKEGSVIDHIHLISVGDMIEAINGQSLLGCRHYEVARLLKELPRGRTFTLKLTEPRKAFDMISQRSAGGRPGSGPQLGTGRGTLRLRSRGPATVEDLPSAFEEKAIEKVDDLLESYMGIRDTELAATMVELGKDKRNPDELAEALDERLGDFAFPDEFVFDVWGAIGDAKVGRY
UniProt Q8N954: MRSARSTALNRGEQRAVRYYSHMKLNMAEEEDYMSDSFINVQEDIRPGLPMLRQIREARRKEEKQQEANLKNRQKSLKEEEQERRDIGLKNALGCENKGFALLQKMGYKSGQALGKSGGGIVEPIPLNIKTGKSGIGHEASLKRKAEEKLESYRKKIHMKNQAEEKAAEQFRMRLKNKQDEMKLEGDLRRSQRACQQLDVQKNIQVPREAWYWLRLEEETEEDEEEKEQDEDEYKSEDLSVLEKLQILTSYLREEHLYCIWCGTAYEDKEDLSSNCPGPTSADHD
UniProt P29992, whole entry, looked up: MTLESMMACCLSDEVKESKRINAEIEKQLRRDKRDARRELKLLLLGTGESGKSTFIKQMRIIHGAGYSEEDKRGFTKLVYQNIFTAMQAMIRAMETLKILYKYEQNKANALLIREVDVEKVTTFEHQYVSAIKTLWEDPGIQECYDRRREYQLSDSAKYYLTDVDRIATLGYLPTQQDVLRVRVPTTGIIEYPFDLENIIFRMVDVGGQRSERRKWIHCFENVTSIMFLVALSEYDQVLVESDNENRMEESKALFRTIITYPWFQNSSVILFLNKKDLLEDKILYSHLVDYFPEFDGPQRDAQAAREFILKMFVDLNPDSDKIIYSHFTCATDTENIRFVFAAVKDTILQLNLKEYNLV
UniProt Q8IXQ4: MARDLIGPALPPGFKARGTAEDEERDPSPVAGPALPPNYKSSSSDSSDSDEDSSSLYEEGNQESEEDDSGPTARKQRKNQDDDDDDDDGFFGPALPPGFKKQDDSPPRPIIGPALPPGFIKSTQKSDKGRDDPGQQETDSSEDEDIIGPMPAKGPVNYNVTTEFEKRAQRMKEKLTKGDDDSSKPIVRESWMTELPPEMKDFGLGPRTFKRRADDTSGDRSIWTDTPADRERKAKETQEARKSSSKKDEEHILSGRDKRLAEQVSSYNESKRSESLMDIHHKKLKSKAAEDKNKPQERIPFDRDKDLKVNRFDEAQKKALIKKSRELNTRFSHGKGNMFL
UniProt O76003: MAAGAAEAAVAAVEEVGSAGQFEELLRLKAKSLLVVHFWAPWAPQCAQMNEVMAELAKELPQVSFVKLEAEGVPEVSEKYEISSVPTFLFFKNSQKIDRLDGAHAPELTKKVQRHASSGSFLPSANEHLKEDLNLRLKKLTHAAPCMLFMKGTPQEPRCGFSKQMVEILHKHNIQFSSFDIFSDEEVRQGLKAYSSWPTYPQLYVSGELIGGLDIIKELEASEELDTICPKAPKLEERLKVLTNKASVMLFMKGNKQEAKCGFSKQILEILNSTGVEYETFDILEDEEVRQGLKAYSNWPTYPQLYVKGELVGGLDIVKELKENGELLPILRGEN
UniProt Q9BXV9: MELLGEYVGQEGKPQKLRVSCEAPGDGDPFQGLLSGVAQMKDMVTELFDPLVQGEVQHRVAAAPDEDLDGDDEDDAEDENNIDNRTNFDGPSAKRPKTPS
UniProt P13224: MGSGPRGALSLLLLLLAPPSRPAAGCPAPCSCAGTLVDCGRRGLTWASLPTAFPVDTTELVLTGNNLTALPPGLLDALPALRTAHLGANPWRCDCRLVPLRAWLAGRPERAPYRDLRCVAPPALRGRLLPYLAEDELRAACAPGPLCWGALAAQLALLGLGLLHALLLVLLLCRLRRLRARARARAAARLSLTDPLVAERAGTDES
UniProt O15228: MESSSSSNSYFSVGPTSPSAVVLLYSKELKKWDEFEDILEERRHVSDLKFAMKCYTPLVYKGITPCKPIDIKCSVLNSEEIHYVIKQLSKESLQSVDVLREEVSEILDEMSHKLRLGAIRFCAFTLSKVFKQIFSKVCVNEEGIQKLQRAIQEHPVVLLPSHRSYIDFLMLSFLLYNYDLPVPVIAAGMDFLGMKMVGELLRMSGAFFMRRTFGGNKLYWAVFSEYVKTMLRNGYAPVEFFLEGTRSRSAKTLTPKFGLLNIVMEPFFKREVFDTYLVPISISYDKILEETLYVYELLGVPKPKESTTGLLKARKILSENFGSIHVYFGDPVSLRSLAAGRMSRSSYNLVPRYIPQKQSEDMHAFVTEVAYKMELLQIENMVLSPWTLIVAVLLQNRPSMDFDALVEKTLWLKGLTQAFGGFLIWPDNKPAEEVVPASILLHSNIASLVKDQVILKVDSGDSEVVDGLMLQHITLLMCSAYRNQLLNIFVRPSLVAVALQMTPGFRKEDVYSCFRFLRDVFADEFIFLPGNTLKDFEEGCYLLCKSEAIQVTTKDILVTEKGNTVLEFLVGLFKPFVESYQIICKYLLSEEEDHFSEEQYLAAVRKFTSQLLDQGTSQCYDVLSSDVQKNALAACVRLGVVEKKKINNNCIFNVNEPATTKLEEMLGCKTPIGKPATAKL
UniProt Q03113, whole entry, looked up: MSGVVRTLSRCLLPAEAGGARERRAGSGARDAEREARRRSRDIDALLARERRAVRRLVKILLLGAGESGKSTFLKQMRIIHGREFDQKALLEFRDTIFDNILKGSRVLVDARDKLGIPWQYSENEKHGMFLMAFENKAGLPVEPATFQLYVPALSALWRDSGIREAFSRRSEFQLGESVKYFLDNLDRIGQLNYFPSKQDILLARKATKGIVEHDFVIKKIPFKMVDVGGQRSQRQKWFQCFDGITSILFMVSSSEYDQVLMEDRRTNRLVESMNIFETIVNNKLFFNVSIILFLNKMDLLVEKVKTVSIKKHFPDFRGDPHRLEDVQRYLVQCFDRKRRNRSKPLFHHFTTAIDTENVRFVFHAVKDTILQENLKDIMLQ
UniProt Q9BRT9, whole entry, looked up: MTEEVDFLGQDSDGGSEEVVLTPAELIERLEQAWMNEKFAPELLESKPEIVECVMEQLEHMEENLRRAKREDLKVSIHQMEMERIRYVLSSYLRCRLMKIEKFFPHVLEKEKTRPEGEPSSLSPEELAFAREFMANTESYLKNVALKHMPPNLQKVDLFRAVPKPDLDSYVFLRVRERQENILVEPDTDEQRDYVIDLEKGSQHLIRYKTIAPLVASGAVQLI
UniProt P15586: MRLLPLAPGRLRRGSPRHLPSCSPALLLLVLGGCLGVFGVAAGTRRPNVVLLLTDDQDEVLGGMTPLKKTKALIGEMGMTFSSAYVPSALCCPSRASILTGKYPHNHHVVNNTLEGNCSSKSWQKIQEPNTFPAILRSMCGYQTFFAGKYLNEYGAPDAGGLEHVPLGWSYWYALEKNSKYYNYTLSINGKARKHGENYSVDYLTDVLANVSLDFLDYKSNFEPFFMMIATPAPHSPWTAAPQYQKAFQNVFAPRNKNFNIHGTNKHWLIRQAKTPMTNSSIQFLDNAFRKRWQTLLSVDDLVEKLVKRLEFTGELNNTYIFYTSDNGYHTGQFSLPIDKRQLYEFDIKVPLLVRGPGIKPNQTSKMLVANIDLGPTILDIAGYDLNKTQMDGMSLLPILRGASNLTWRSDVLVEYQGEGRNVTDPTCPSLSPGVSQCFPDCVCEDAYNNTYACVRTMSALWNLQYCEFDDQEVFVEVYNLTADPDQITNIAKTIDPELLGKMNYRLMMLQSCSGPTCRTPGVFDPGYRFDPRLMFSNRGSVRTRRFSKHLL
UniProt Q92896: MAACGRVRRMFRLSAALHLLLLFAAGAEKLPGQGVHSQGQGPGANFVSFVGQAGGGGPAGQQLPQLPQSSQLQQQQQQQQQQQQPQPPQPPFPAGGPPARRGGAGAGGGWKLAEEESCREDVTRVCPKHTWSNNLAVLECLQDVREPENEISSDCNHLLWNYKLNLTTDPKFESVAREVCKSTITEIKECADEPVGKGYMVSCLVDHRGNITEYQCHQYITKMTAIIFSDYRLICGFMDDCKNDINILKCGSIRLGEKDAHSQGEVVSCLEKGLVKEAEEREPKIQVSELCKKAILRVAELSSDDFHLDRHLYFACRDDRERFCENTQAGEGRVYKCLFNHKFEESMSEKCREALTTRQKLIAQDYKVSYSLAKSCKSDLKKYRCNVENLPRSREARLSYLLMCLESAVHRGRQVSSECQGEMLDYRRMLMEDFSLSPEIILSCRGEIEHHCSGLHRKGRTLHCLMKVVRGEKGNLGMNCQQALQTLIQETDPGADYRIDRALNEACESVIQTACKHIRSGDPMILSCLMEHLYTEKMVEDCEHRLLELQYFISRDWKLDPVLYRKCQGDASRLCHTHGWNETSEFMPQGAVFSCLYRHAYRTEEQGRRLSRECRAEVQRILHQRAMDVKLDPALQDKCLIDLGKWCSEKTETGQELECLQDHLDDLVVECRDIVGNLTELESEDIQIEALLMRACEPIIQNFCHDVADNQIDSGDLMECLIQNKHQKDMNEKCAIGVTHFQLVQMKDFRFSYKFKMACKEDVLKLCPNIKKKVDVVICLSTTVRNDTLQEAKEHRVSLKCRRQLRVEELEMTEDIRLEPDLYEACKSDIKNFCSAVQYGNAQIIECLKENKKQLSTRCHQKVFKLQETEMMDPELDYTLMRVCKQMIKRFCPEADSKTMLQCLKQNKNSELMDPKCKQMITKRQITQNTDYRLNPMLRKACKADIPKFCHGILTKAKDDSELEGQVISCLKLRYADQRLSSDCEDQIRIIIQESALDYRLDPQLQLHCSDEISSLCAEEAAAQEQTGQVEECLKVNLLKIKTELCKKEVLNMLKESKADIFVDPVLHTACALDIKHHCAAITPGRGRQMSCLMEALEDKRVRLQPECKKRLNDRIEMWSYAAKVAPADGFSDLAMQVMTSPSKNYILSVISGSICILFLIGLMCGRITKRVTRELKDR
UniProt Q9H4A5: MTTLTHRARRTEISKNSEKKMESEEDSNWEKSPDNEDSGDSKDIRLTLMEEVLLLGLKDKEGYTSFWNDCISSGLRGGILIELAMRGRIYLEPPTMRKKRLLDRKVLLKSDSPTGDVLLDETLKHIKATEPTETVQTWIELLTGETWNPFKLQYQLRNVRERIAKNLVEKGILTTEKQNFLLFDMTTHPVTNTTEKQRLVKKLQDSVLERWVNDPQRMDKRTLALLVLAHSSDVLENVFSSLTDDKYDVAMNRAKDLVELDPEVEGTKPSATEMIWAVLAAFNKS
UniProt P19440: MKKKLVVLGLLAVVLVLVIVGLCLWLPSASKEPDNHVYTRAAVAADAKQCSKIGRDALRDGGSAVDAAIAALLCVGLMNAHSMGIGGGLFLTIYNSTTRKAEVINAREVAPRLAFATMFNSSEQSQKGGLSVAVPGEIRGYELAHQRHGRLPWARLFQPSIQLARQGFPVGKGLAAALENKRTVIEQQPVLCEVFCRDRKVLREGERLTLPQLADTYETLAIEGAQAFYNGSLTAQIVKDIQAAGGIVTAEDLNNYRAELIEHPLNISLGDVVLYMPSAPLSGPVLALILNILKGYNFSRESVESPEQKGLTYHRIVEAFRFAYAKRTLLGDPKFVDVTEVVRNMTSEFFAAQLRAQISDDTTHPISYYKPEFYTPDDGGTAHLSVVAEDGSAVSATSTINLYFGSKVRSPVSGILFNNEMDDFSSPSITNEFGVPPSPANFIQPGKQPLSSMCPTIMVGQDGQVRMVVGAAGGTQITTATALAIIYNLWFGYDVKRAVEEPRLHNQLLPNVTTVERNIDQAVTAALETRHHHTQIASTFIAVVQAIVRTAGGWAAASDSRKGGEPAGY
UniProt P16520, whole entry, looked up: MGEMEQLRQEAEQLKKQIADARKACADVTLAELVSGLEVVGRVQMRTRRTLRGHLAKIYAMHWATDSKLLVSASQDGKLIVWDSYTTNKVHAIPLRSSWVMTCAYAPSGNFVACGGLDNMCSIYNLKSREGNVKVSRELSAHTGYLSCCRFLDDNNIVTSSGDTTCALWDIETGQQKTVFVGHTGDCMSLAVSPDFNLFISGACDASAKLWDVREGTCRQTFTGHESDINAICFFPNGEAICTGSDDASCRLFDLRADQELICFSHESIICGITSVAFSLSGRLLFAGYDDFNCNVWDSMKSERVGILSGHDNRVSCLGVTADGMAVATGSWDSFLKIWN

Compound in this experiment: CC1=C2C(=CC=C1)N=C(N(C2=O)C3=CC=CC=C3C)CN4C=NC5=C(N=CN=C54)N
In words: log2 fold change, soluble protein after heating vs DMSO (PISA); higher = thermal stabilisation; K562 lysate, 10 uM; active = over 0.2 and 3.5 SD of the protein, either way, in both replicates (recomputed). The procedure, abridged:
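Soluble protein was defined as the supernatant remaining after 21,000xg for 90 min, following pooling of heated aliquots and adjustment to 0.5% NP-40 at 4°C. Before that, crude K562 extract at 1 mg/mL protein in PBS pH 7.4 with 1 mM MgCl2 was treated with 10 μM compound for 30 min and heated for 3 min across 48°C-58°C. Quantification used TMTpro 16plex LC-MS/MS with channel sums equalised, and values are log-two fold changes in thermal stability relative to solvent controls from duplicates.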
For GNAQ (UniProt P50148), the log2 fold change was inactive: 0.023.

With GOSR1 (UniProt O95249), the log2 fold change is inactive: 0.054.

With GGCT (UniProt O75223), the log2 fold change was inactive: 0.006.

In the case of GLTP (UniProt Q9NZD2), the log2 fold change was inactive: 0.014.

In the case of GIPC1 (UniProt O14908), the log2 fold change is inactive: -0.024.

Turning to GHITM (UniProt Q9H3K2), the log2 fold change is inactive: 0.009.

GPATCH11 (UniProt Q8N954): the log2 fold change is inactive: -0.013.

For GGT7 (UniProt Q9UJ14), the log2 fold change was inactive: 0.103.

Consider GLB1L2 (UniProt Q8IW92), for which the log2 fold change was inactive: 0.059.

GIT2 (UniProt Q14161): the log2 fold change was inactive: 0.021.

With GPI (UniProt P06744), the log2 fold change is inactive: -0.002.

For the target GNA11 (UniProt P29992), the log2 fold change is inactive: -0.001.

Turning to GNPDA1 (UniProt P46926), the log2 fold change was inactive: -0.02.

In the case of GMEB1 (UniProt Q9Y692), the log2 fold change is inactive: -0.043.

In the case of GPALPP1 (UniProt Q8IXQ4), the log2 fold change was inactive: -0.038.

Turning to GLRX3 (UniProt O76003), the log2 fold change is inactive: -0.016.

For the target GOLGA4 isoform 5 (UniProt Q13439), the log2 fold change was inactive: 0.005.

Turning to GPRASP2 (UniProt Q96D09), the log2 fold change was inactive: -0.056.

Take GON7 (UniProt Q9BXV9): the log2 fold change is inactive: 0.001.

On to GP1BB isoform 2 (UniProt P13224), for which the log2 fold change was inactive: 0.08.

Turning to GNPAT (UniProt O15228), the log2 fold change was inactive: 0.001.

On to GNPNAT1 (UniProt Q96EK6), for which the log2 fold change was inactive: -0.046.

With GNA12 (UniProt Q03113), the log2 fold change is inactive: 0.058.

For GNAI3 (UniProt P08754), the log2 fold change is inactive: -0.023.

GON4L (UniProt Q3T8J9): the log2 fold change is inactive: 0.008.

For the target GOLGA4 (UniProt Q13439), the log2 fold change is inactive: -0.349.

As for GINS4 (UniProt Q9BRT9), the log2 fold change is inactive: -0.007.

GPR108 (UniProt Q9NPR9): the log2 fold change is inactive: 0.005.

Regarding GPN3 isoform 2 (UniProt Q9UHW5), the log2 fold change was inactive: 0.058.

As for GNS (UniProt P15586), the log2 fold change is inactive: -0.012.

Consider GOLPH3 (UniProt Q9H4A6), for which the log2 fold change is inactive: 0.022.

Regarding GLG1 isoform 2 (UniProt Q92896), the log2 fold change is inactive: -0.004.

GOLPH3L (UniProt Q9H4A5): the log2 fold change was inactive: 0.022.

Turning to GNL3L (UniProt Q9NVN8), the log2 fold change is inactive: 0.046.

For the target GGT1 (UniProt P19440), the log2 fold change was inactive: 0.034.

On to GNB3 (UniProt P16520), for which the log2 fold change was inactive: 0.118.

(Values after the supplement of paper PMC10849652.)
